The list shows a part of the results.

The chains behind the UniProt entries cited, without tags or fusion partners. Where a name states a change or a piece, a line headed by the entry shows the natural chain unless it says otherwise.
UniProt P50053: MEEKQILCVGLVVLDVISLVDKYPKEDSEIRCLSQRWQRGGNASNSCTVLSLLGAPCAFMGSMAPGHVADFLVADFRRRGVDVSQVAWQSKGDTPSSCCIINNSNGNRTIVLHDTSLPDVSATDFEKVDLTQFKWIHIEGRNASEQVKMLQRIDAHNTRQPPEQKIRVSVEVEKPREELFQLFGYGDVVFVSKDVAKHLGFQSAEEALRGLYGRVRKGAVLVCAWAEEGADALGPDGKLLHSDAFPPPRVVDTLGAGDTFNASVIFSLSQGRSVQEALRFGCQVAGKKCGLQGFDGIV
UniProt P56937: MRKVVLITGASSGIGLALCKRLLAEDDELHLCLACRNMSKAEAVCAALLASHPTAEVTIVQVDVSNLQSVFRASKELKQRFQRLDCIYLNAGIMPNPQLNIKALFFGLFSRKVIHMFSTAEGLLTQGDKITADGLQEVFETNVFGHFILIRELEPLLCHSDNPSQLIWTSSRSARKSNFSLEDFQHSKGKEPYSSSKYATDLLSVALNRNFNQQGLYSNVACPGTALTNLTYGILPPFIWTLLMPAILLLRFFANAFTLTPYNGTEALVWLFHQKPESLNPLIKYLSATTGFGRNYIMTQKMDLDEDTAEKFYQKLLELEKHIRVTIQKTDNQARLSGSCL
UniProt O94819: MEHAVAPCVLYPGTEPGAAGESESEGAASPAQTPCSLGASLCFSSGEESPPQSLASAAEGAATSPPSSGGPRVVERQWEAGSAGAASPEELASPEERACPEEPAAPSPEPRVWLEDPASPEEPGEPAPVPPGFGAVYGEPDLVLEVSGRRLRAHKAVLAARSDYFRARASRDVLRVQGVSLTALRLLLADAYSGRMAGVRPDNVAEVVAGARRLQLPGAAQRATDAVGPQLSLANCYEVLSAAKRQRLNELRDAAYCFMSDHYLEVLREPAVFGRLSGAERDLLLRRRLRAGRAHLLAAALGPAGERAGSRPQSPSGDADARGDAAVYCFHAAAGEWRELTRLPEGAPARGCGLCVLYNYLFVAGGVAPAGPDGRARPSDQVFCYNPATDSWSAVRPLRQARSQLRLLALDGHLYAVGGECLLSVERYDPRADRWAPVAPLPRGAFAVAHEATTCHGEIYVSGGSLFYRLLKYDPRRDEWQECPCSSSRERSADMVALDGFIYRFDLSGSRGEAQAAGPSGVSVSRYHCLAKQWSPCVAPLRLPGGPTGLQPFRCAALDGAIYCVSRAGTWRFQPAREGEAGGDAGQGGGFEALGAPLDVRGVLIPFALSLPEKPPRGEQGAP
UniProt P14316: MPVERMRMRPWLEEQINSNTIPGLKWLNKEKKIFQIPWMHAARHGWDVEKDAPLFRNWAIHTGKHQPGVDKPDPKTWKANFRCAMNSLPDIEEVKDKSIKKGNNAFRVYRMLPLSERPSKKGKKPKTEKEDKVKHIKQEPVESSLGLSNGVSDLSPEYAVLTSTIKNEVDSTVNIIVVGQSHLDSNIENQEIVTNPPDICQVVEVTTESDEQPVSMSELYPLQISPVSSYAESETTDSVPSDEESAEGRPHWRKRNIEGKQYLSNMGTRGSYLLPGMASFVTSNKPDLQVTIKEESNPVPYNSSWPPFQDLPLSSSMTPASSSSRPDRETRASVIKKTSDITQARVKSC
UniProt Q9Y4H2: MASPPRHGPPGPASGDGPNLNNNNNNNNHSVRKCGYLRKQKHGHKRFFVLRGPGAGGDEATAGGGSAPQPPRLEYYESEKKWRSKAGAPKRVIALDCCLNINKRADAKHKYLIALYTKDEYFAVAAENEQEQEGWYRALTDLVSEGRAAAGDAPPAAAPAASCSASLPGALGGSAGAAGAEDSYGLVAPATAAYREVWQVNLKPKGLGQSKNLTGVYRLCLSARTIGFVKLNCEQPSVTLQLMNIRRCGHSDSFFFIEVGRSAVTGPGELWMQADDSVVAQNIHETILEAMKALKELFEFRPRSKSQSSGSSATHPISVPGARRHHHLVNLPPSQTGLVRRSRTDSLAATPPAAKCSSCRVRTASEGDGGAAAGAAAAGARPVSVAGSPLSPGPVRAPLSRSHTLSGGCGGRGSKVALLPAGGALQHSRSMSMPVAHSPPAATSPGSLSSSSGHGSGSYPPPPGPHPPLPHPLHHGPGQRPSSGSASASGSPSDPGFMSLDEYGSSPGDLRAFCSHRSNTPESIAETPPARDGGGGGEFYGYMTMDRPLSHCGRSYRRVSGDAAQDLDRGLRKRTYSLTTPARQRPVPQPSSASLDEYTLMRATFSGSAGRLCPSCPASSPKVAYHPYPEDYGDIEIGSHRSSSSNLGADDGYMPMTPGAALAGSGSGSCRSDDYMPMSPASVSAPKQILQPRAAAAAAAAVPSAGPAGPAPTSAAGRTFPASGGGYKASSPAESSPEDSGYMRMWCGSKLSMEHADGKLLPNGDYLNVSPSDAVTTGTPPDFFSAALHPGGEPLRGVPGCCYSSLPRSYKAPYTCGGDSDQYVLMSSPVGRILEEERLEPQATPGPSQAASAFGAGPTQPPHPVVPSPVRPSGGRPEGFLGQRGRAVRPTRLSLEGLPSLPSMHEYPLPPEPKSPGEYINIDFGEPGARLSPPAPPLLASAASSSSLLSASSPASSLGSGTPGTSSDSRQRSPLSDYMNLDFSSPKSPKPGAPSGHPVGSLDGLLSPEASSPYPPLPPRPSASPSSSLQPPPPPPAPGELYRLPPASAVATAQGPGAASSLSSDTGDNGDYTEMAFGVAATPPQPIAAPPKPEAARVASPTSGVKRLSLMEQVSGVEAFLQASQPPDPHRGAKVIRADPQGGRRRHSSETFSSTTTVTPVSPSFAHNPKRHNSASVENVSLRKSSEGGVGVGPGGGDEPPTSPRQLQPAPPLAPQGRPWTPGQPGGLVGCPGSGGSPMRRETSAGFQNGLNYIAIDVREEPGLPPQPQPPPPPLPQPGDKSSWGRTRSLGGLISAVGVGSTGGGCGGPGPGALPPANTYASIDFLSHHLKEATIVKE
UniProt Q9Y547: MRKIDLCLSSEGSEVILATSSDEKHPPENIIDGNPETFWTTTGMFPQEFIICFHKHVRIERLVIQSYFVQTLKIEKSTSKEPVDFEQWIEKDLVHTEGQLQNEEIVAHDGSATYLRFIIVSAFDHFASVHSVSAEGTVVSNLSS
UniProt Q9NPH3, whole entry: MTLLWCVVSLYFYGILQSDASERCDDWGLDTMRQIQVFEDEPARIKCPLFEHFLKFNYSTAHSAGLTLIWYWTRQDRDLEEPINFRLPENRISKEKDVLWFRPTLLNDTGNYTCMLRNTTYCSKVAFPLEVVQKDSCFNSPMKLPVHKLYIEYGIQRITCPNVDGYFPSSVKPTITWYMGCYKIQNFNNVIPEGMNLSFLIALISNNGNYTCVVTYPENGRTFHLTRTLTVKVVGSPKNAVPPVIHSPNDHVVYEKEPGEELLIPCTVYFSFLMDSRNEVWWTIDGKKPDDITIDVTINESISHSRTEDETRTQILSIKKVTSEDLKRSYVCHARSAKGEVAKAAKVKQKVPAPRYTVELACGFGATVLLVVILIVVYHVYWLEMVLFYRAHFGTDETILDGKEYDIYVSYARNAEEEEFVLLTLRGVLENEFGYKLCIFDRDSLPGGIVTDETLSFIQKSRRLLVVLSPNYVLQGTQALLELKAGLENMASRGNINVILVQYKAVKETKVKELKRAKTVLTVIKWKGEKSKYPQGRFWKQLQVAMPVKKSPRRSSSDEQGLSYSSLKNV
UniProt Q8N371: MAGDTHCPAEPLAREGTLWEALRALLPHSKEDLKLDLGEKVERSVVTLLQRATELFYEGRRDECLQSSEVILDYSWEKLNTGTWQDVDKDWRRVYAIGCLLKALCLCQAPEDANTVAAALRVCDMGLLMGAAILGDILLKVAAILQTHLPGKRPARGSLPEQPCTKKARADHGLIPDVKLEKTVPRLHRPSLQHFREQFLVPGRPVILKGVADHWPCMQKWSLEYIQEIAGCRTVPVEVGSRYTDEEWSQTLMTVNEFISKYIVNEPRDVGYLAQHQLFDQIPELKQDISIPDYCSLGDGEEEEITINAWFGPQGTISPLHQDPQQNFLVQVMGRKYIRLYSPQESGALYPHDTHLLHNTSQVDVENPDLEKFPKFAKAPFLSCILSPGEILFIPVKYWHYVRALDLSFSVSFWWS
UniProt Q8IY31, whole entry: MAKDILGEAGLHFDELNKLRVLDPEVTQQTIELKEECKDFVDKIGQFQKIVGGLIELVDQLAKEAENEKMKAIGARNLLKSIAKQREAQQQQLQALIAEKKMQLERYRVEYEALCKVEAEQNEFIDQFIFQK
UniProt P78318: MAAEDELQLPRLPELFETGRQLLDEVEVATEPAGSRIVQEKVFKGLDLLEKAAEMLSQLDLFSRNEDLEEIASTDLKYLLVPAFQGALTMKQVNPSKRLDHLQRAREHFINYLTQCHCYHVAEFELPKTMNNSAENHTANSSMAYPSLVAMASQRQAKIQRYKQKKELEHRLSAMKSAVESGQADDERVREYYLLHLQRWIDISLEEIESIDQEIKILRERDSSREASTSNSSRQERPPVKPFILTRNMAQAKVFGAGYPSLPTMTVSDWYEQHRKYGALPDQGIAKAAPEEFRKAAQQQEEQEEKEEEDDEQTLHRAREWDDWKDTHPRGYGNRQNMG
UniProt Q96CX2: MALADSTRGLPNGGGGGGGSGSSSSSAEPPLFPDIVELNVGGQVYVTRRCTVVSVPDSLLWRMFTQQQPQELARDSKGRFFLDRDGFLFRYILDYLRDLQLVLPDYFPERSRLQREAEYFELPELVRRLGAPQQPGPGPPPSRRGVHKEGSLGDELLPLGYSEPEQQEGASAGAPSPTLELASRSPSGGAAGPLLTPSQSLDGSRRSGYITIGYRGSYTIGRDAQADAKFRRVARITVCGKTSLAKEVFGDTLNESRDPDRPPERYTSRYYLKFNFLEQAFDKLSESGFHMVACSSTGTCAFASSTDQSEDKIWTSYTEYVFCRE
UniProt P31943: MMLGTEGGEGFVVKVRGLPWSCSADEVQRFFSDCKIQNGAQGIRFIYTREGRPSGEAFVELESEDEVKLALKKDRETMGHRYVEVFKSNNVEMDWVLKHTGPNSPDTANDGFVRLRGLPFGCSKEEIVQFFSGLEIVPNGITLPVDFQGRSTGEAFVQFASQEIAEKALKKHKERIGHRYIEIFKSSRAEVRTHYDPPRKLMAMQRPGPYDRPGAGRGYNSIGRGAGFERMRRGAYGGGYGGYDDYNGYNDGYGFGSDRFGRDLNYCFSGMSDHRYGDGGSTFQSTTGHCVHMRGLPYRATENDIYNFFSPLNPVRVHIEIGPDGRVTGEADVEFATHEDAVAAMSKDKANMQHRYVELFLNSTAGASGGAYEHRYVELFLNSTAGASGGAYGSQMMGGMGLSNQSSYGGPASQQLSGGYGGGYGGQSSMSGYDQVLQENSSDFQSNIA
UniProt P61604, whole entry: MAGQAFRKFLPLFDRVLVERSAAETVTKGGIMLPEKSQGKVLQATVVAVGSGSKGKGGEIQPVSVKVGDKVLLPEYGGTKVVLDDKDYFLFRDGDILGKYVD
UniProt Q8TEX9: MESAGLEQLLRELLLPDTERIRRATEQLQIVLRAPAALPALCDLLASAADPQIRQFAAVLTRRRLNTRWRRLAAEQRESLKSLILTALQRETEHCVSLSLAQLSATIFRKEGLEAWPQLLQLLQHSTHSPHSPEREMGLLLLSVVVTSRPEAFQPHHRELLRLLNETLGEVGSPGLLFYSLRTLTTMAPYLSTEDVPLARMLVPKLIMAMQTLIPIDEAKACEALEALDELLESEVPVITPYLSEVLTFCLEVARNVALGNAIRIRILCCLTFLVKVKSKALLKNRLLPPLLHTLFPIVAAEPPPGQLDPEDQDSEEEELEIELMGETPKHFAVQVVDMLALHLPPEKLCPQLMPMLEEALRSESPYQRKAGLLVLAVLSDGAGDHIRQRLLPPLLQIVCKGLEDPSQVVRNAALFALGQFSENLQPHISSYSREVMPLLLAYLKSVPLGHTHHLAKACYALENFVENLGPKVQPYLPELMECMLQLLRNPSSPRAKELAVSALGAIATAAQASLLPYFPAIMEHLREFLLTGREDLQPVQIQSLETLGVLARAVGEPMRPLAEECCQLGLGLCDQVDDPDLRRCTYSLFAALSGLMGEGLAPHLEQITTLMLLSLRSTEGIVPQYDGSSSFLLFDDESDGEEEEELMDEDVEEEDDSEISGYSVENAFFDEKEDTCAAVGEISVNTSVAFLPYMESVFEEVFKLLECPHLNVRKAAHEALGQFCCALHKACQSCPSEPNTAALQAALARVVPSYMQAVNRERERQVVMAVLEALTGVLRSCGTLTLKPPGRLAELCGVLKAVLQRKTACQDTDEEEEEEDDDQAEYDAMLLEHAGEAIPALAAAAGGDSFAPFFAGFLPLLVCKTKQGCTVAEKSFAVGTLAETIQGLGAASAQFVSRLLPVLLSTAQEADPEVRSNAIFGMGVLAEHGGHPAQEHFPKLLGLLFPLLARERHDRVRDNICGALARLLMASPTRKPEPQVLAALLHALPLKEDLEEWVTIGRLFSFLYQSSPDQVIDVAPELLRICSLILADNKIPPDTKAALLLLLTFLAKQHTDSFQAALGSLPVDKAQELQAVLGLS

Compound in the test: COc1ccc(Cn2ccc3ccc(C(=O)NO)cc32)cc1
The test can be described thus: dose-dependent thermal stabilisation call (2D-TPP, DLPTP, 10% FDR) (binary (1 = stabilised)); higher = stabilised by the compound. As to conditions: system: HL-60 intact cells; concentration range 0.04-10 µM.
Consider KHK (UniProt P50053), for which the “dose-dependent thermal stabilisation call” value is inactive: 0.
The value for HMGN1 (UniProt P05114) was inactive: 0.
On to IMP3 (UniProt Q9NV31), for which the “dose-dependent thermal stabilisation call” value is inactive: 0.
ISCU (UniProt Q9H1K1): the “dose-dependent thermal stabilisation call” value is inactive: 0.
As to ITPR1 (UniProt Q14643), the “dose-dependent thermal stabilisation call” value was inactive: 0.
In the case of IL27RA (UniProt Q6UWB1) it was inactive: 0; in that of JMJD2B (UniProt O94953), inactive: 0; in that of IFT88 (UniProt Q13099), inactive: 0.
As for HSD17B7 (UniProt P56937), the “dose-dependent thermal stabilisation call” value was inactive: 0.
The value for KBTBD11 (UniProt O94819) was inactive: 0.
In the case of IRF2 (UniProt P14316) it was inactive: 0; in that of IRS2 (UniProt Q9Y4H2), inactive: 0.
The value for HSPB11 (UniProt Q9Y547) was inactive: 0; that for IVNS1ABP (UniProt Q9Y6Y0) was inactive: 0; that for IL1RAP (UniProt Q9NPH3) was inactive: 0.
Consider INTS5 (UniProt Q6P9B9), for which the “dose-dependent thermal stabilisation call” value is inactive: 0.
The value for HNRPLL (UniProt Q8WVV9) was inactive: 0; that for JMJD5 (UniProt Q8N371) was inactive: 0.
KCTD15 (UniProt Q96SI1): the “dose-dependent thermal stabilisation call” value was inactive: 0.
In the case of KIAA0319L (UniProt Q8IZA0) it was inactive: 0; in that of IFT20 (UniProt Q8IY31), inactive: 0; in that of KIAA0101 (UniProt Q15004), inactive: 0.
The value for HTATSF1 (UniProt O43719) was inactive: 0.
The value for IPO13 (UniProt O94829) was inactive: 0.
Take IGBP1 (UniProt P78318): the “dose-dependent thermal stabilisation call” value was inactive: 0.
The value for IFT57 (UniProt Q9NWB7) was inactive: 0.
In the case of HN1L it was inactive: 0; in that of KIAA0196 (UniProt Q12768), inactive: 0; in that of HMOX2 (UniProt P30519), active: 1.
In the case of HNRPA1L-2 it was inactive: 0; in that of KCTD12 (UniProt Q96CX2), inactive: 0.
As to HNRNPH1 (UniProt P31943), the “dose-dependent thermal stabilisation call” value is inactive: 0.
In the case of HNRNPA0 (UniProt Q13151) it was inactive: 0; in that of HSPE1 (UniProt P61604), inactive: 0; in that of HNRNPUL2 (UniProt Q1KMD3), inactive: 0.
As to IPO4 (UniProt Q8TEX9), the “dose-dependent thermal stabilisation call” value was inactive: 0.
In the case of IQCB1 (UniProt Q15051) it was inactive: 0.

These data come from the supplement of paper PMC7666118.
